Results from the supplement of paper PMC10849652.
The other results are listed elsewhere or left out.

Sequences of proteins named here, by UniProt entry; tags and fusion partners are left off. A change or cut given only in a name is not applied to a line headed by its entry.
UniProt Q5VTL8: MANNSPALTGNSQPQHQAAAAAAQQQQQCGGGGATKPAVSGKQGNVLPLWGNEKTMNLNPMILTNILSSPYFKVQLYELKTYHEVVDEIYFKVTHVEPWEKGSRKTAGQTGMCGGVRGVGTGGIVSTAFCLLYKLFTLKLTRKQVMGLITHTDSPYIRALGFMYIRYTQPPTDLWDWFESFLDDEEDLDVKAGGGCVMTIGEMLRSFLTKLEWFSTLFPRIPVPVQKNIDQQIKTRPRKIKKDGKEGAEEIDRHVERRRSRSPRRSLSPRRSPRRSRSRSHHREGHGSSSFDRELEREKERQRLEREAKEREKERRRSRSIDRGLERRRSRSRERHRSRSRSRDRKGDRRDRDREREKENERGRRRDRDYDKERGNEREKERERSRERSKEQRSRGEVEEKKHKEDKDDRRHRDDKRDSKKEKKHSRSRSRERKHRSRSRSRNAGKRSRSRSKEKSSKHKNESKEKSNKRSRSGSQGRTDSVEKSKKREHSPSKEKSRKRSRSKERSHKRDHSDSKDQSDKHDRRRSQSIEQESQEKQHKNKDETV
UniProt O00743: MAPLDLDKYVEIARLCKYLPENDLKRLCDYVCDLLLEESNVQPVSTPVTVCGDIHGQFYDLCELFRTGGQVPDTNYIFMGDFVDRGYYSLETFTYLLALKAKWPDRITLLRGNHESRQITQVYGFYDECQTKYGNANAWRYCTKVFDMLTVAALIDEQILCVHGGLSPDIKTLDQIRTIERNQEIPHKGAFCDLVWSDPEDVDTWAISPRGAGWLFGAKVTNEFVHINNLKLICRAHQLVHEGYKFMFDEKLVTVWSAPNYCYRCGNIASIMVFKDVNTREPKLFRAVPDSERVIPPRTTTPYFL
UniProt O43395: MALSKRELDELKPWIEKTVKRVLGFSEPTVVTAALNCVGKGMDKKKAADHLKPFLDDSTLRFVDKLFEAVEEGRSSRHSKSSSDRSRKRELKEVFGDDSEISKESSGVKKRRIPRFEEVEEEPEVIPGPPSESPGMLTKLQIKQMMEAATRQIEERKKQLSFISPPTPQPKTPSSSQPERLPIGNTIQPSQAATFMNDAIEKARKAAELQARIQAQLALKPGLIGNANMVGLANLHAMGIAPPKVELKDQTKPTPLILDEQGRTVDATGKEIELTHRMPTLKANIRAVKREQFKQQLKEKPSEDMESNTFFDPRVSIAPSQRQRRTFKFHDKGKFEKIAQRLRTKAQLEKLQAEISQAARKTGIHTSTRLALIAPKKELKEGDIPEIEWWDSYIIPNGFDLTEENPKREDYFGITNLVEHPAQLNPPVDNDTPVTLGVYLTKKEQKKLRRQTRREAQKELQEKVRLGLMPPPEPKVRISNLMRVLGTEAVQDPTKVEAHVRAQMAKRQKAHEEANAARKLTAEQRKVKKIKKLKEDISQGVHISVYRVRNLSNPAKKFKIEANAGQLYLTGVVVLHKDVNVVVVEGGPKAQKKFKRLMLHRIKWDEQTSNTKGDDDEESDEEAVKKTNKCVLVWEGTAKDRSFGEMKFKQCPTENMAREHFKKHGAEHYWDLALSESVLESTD
UniProt Q969Q6: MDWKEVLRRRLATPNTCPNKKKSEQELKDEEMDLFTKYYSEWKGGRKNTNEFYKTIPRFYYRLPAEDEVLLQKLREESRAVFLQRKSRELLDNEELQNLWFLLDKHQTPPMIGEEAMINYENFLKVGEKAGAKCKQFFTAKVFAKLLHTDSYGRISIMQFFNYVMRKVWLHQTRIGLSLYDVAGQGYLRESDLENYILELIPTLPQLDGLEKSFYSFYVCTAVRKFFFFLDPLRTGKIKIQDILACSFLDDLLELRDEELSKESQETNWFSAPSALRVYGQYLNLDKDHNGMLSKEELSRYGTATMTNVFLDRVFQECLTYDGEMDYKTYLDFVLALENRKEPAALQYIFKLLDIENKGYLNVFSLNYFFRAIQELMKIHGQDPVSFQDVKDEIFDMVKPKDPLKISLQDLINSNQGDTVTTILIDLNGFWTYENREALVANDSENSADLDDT
UniProt P31323, whole entry, looked up: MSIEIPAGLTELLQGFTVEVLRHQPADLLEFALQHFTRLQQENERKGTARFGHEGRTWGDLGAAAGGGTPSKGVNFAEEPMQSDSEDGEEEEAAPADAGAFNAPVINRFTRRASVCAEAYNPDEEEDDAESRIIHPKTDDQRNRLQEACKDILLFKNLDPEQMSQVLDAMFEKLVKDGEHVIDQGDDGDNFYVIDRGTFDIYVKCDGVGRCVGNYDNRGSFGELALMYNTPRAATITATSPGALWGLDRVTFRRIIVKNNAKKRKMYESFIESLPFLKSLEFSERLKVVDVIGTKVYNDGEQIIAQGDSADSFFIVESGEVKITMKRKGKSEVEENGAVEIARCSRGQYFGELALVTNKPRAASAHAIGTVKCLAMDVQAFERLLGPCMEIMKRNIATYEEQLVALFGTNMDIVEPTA
UniProt O75688: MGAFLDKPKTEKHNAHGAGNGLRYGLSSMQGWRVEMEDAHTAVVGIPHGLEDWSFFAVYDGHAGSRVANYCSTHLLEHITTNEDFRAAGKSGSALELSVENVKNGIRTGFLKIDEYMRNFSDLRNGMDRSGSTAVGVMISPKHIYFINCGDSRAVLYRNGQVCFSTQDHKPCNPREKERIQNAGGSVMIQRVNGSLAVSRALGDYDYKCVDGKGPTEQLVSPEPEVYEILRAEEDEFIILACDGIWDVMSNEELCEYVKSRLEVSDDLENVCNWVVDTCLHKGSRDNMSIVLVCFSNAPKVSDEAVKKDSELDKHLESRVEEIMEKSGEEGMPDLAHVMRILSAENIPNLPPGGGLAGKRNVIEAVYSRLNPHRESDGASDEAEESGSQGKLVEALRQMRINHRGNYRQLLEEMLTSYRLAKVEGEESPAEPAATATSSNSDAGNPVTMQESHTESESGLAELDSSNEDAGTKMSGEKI
UniProt O75569: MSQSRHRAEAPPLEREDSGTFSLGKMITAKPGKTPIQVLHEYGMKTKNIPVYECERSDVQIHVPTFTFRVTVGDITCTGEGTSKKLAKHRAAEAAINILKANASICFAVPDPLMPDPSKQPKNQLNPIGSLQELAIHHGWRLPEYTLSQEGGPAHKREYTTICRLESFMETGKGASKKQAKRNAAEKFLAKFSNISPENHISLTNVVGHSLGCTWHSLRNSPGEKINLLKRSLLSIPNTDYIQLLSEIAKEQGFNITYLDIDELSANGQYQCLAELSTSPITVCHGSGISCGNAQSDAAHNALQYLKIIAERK
UniProt P51817: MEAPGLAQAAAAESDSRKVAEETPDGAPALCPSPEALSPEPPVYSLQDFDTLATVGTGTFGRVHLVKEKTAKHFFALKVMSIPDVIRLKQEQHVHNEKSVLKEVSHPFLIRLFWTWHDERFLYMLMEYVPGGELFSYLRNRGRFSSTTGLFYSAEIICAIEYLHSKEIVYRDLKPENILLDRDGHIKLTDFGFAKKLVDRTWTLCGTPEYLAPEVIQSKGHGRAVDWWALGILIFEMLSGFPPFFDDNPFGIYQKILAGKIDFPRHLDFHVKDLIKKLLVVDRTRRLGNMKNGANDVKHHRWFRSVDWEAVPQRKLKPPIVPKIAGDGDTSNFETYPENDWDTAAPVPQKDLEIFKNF
UniProt Q96QC0: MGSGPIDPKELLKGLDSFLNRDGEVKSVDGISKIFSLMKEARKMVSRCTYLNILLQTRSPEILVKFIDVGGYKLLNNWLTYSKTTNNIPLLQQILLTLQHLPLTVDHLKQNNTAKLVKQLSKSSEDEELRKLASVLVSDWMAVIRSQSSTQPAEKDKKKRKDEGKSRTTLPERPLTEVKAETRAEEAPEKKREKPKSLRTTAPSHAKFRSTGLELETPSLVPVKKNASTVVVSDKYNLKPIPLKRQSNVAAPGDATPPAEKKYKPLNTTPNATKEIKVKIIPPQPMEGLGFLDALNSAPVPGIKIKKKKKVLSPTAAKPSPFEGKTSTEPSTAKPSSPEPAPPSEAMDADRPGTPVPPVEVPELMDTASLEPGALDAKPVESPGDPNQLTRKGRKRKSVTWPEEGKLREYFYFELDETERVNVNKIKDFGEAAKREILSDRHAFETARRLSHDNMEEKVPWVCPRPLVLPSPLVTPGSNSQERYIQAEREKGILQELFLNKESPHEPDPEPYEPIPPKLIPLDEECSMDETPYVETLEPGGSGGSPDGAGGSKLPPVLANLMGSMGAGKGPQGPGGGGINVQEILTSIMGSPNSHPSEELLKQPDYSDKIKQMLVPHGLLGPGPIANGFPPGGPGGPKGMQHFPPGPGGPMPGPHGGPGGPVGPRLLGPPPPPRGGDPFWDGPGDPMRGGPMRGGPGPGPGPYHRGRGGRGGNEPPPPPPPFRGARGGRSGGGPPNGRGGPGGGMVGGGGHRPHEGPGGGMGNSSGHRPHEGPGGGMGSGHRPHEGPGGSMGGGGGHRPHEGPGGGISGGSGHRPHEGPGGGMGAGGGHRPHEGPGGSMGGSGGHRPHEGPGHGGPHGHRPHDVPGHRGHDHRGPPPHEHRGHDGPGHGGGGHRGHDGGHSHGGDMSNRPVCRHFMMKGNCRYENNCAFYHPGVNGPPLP
UniProt P36873, whole entry, looked up: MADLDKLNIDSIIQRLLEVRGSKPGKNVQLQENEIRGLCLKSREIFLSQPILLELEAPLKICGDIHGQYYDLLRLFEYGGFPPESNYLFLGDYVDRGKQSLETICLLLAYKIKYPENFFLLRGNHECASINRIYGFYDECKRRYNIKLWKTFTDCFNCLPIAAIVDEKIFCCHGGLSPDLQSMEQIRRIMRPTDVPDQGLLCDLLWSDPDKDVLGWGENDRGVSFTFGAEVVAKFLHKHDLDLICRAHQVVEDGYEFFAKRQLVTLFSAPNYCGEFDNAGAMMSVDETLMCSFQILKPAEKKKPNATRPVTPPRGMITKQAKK
UniProt Q96C90: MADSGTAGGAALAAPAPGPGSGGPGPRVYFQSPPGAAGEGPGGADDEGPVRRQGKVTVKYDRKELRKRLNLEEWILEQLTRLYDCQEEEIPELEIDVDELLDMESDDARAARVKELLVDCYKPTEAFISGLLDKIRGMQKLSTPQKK
UniProt Q9NQV6: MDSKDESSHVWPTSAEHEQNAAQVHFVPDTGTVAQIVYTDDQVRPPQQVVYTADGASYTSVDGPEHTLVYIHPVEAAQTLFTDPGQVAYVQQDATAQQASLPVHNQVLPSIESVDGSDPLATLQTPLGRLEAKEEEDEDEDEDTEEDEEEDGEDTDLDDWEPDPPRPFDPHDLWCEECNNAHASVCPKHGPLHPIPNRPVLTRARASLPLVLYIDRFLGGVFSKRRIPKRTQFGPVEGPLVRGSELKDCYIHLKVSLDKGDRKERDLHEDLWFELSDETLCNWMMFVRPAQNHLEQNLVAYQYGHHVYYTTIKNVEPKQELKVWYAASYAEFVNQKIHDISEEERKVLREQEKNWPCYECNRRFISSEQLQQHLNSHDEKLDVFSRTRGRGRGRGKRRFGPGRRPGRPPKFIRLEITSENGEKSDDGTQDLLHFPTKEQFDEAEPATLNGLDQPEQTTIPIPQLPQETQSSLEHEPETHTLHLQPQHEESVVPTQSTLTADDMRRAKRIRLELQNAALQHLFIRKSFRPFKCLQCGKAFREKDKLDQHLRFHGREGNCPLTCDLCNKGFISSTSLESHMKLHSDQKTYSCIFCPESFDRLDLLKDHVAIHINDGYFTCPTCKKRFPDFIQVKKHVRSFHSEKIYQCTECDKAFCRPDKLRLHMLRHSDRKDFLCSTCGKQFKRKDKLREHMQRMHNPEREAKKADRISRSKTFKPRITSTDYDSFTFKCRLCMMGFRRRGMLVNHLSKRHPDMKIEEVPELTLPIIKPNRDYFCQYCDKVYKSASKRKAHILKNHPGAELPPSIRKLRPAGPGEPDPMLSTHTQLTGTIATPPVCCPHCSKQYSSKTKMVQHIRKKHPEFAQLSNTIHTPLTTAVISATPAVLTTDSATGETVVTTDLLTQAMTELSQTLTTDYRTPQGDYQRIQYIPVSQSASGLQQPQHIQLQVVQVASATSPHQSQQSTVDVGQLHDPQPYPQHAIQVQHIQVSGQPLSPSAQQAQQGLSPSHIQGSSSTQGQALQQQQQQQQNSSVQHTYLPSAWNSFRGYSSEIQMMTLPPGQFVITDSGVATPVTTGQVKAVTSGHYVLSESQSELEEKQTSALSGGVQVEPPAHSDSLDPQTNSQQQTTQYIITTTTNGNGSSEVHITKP
UniProt P41236: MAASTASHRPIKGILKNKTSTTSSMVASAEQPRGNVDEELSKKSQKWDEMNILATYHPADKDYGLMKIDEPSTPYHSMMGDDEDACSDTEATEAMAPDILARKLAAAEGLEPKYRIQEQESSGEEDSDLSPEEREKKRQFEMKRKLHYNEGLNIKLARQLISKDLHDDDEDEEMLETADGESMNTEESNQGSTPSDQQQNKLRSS
UniProt P30044: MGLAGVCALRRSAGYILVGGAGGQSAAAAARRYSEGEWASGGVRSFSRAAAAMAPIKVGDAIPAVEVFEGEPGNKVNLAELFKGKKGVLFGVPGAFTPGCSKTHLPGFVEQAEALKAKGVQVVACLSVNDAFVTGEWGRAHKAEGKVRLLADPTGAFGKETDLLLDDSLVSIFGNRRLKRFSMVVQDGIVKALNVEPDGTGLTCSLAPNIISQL

Key:
Test in all cases: log2 fold change, soluble protein after heating vs DMSO (PISA); higher = thermal stabilisation; K562 lysate, 10 uM; active = over 0.2 and 3.5 SD of the protein, either way, in both replicates (recomputed)
[1] = compound: CCCS(=O)(=O)Nc1ccc(F)c(C(=O)c2c[nH]c3ncc(-c4ccc(Cl)cc4)cc23)c1F [vemurafenib]
Method in brief: (§1)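 Soluble protein was defined as the supernatant remaining after 21,000xg for 90 min, following pooling of heated aliquots and adjustment to 0.5% NP-40 at 4°C. Before that, crude K562 extract at 1 mg/mL protein in PBS pH 7.4 with 1 mM MgCl2 was treated with 10 μM compound for 30 min and heated for 3 min across 48°C-58°C. Quantification used TMTpro 16plex LC-MS/MS with channel sums equalised, and values are log-two fold changes in thermal stability relative to solvent controls from duplicates.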

[2] = compound: CCCS(=O)(=O)Nc1ccc(F)c(C(=O)c2c[nH]c3ncc(Cl)cc23)c1F
Method in brief: as §1

[3] = compound: CCN(CCCOc1ccc2c(Nc3cc(CC(=O)Nc4cccc(F)c4)[nH]n3)ncnc2c1)CCOP(=O)(O)O [barasertib]
Method in brief: as §1

[4] = compound: CC[C@@H]1C(=O)N(C)c2cnc(Nc3ccc(C(=O)NC4CCN(C)CC4)cc3OC)nc2N1C1CCCC1
Method in brief: as §1

[5] = compound: CC[C@@H]1C(=O)N(C)c2cnc(Nc3ccc(C(=O)N[C@H]4CC[C@H](N5CCN(CC6CC6)CC5)CC4)cc3OC)nc2N1C(C)C [volasertib]
Method in brief: as §1

[6] = compound: CCn1c(C(=O)N(C2CC2)C2CC2)cc2c3c(ncn3C)c(Nc3cc(C)n(C)n3)nc21
Method in brief: as §1

[7] = compound: CCn1cc(-c2ccnc3[nH]c(-c4cccc(CN(C)C)c4)cc23)c(-c2ccc(NC(=O)N(C)C)cc2)n1
Method in brief: as §1

[8] = compound: CN1CCC(CNc2ccc3ncc(-c4cccc(OC(F)(F)F)c4)n3n2)CC1
Method in brief: as §1

[9] = compound: CN1CCN(CCOc2cc(OC3CCOCC3)c3c(Nc4c(Cl)ccc5c4OCO5)ncnc3c2)CC1 [saracatinib]
Method in brief: as §1

[10] = compound: CN1CCN(c2nc(C3=C(c4c[nH]c5ccccc45)C(=O)NC3=O)c3ccccc3n2)CC1 [sotrastaurin]
Method in brief: as §1

| Target | log2 fold change [1] | log2 fold change [2] | log2 fold change [3] | log2 fold change [4] | log2 fold change [5] | log2 fold change [6] | log2 fold change [7] | log2 fold change [8] | log2 fold change [9] | log2 fold change [10] |
| --- | --- | --- | --- | --- | --- | --- | --- | --- | --- | --- |
| PRPF38B (UniProt Q5VTL8) | inactive: -0.021 | inactive: 0.014 | inactive: 0.018 | inactive: -0.011 | inactive: -0.013 | inactive: -0.006 | inactive: -0.078 | inactive: 0.02 | inactive: -0.002 | inactive: -0.025 |
| PPP6C isoform 3 (UniProt O00743) | inactive: -0.018 | inactive: -0.02 | inactive: 0.005 | inactive: 0.023 | inactive: -0.004 | inactive: 0.032 | inactive: -0.023 | inactive: 0.05 | inactive: -0.003 | inactive: -0.004 |
| PRPF3 (UniProt O43395) | inactive: 0.001 | inactive: 0.015 | inactive: 0 | inactive: 0.017 | inactive: -0.035 | inactive: 0.018 | inactive: 0.127 | inactive: -0.045 | inactive: -0.002 | inactive: -0.014 |
| PPP1R7 (UniProt Q15435) | inactive: -0.013 | inactive: -0.009 | inactive: 0.018 | inactive: -0.034 | inactive: 0.014 | inactive: 0.028 | inactive: -0.019 | inactive: 0.003 | inactive: -0.003 | inactive: 0.009 |
| PRC1 (UniProt O43663) | inactive: 0.048 | inactive: 0.03 | inactive: 0.063 | inactive: -0.057 | inactive: -0.028 | inactive: 0 | inactive: -0.004 | inactive: -0.094 | inactive: 0.025 | inactive: 0.005 |
| PRKDC (UniProt P78527) | inactive: 0.132 | inactive: 0.014 | inactive: -0.009 | inactive: -0.058 | inactive: -0.062 | inactive: 0.063 | inactive: -0.12 | inactive: 0.097 | inactive: -0.007 | inactive: 0.048 |
| PRMT1 (UniProt Q99873) | inactive: 0.041 | inactive: -0.002 | inactive: -0.02 | inactive: -0.034 | inactive: -0.003 | inactive: -0.009 | inactive: -0.154 | inactive: 0.167 | inactive: -0.005 | inactive: 0.005 |
| PPP1R9B (UniProt Q96SB3) | inactive: -0.001 | inactive: 0.016 | inactive: -0.025 | inactive: 0.056 | inactive: 0.024 | inactive: 0.004 | inactive: 0.196 | inactive: -0.095 | inactive: -0.018 | inactive: -0.004 |
| PPP1R14C (UniProt Q8TAE6) | inactive: -0.183 | inactive: 0.008 | inactive: 0.002 | inactive: -0.084 | inactive: 0.037 | inactive: 0.072 | inactive: -0.217 | inactive: 0.017 | inactive: -0.022 |  |
| PPP2R3C (UniProt Q969Q6) | inactive: -0.081 | inactive: -0.094 | inactive: 0.094 | inactive: -0.244 | inactive: 0 | inactive: 0.071 | active: -0.392 | inactive: 0.115 | inactive: 0.04 |  |
| PPP1R16A (UniProt Q96I34) | inactive: -0.057 | inactive: 0.083 | inactive: -0.054 | inactive: 0.021 | inactive: -0.051 | inactive: 0.024 | inactive: -0.154 | inactive: 0.038 |  |  |
| PRKCB isoform 2 (UniProt P05771) | inactive: 0.045 | inactive: -0.024 | inactive: -0.017 | inactive: -0.01 | inactive: -0.062 | inactive: 0.002 | inactive: 0.073 | inactive: -0.077 | inactive: -0.023 | active: 0.505 |
| PRPF19 (UniProt Q9UMS4) | inactive: -0.03 | inactive: -0.004 | inactive: -0.01 | inactive: -0.051 | inactive: 0.013 | inactive: 0 | inactive: 0.008 | inactive: 0.01 | inactive: -0.013 | inactive: 0.025 |
| PPP6R3 isoform 5 (UniProt Q5H9R7) | inactive: -0.008 | inactive: 0.006 | inactive: -0.011 | inactive: 0.012 | inactive: 0.008 | inactive: -0.015 | inactive: 0.002 | inactive: 0.02 | inactive: 0.01 | inactive: 0.018 |
| PRMT9 (UniProt Q6P2P2) | inactive: -0.021 | inactive: 0.028 | inactive: 0.03 | inactive: -0.041 | inactive: -0.057 | inactive: 0.033 | inactive: -0.038 | inactive: 0.05 | inactive: 0 | inactive: 0.053 |
| PRKAR2B (UniProt P31323) | inactive: 0.01 | inactive: 0 | inactive: 0.053 | inactive: -0.028 | inactive: -0.043 | inactive: -0.032 | inactive: 0.051 | active: -0.26 | inactive: 0.007 | inactive: -0.17 |
| PRDX4 (UniProt Q13162) | inactive: 0.017 | inactive: -0.001 | inactive: 0.005 | inactive: 0.018 | inactive: 0.015 | inactive: -0.018 | inactive: -0.108 | inactive: 0.083 | inactive: 0.025 | inactive: 0.031 |
| PPM1B (UniProt O75688) | inactive: 0.015 | inactive: 0.019 | inactive: -0.001 | inactive: -0.002 | inactive: -0.017 | inactive: -0.015 | inactive: -0.109 | inactive: 0.075 | inactive: 0.005 | inactive: 0.003 |
| PRKRA (UniProt O75569) | inactive: -0.012 | inactive: 0.031 | inactive: -0.042 | inactive: -0.082 | inactive: -0.052 | inactive: 0.041 | inactive: 0 | inactive: -0.016 | inactive: 0.03 | inactive: 0.009 |
| PRKX (UniProt P51817) | inactive: 0.012 | inactive: 0 | inactive: 0.127 | inactive: -0.111 | inactive: -0.147 | inactive: -0.189 | inactive: -0.225 | inactive: 0.389 | inactive: 0.019 |  |
| PPP2R5E (UniProt Q16537) | inactive: 0.009 | inactive: -0.011 | inactive: -0.016 | inactive: 0.013 | inactive: -0.003 | inactive: 0.001 | inactive: -0.01 | inactive: -0.074 | inactive: 0.017 | inactive: 0.029 |
| PPP1R10 (UniProt Q96QC0) | inactive: 0.027 | inactive: 0.007 | inactive: 0.043 | inactive: 0.111 | inactive: 0.007 | inactive: 0.006 | inactive: 0.017 | inactive: 0.004 | inactive: 0.032 | inactive: -0.007 |
| PPP1CC isoform 2 (UniProt P36873) | inactive: 0.029 | inactive: 0.024 | inactive: -0.023 | inactive: 0.017 | inactive: -0.007 | inactive: 0.01 | inactive: 0.155 | inactive: -0.015 | inactive: -0.004 | inactive: -0.013 |
| PPP3CC (UniProt P48454) | inactive: 0.039 | inactive: -0.011 | inactive: 0.032 | inactive: 0.032 | inactive: 0 | inactive: 0.053 | inactive: -0.064 | inactive: 0.034 | inactive: 0.016 | inactive: 0.045 |
| PRMT2 (UniProt P55345) | inactive: 0.067 | inactive: 0.048 | inactive: -0.106 | inactive: 0.007 | inactive: -0.303 | inactive: -0.065 | inactive: -0.109 | inactive: -0.031 | inactive: -0.117 |  |
| PPP1R14B (UniProt Q96C90) | inactive: 0.071 | inactive: -0.02 | inactive: 0.032 | inactive: 0.055 | inactive: 0.017 | inactive: -0.088 | inactive: 0.05 | inactive: 0.017 | inactive: 0.048 | inactive: -0.046 |
| PRDM10 isoform 6 (UniProt Q9NQV6) | inactive: 0.008 | inactive: 0.111 | inactive: 0.111 | inactive: 0.02 | inactive: 0.074 | inactive: 0.09 |  |  |  |  |
| PPP1R2 (UniProt P41236) | inactive: 0.008 | inactive: 0.01 | inactive: -0.038 | inactive: 0.049 | inactive: 0.018 | inactive: -0.001 | inactive: -0.022 | inactive: 0.046 | inactive: -0.025 | inactive: 0.022 |
| PRDX5 (UniProt P30044) | inactive: -0.013 | inactive: -0.005 | inactive: 0.016 | inactive: 0.062 | inactive: 0.025 | inactive: -0.015 | inactive: -0.004 | inactive: 0.01 | inactive: -0.014 | inactive: -0.014 |
| PROSER2 (UniProt Q86WR7) | inactive: 0.02 | inactive: 0.055 | inactive: 0.035 | inactive: -0.017 | inactive: 0.121 | inactive: 0.005 | inactive: -0.039 | inactive: 0.02 | inactive: 0.039 | inactive: 0.033 |

2 entries drawn at random from those above:

| Target | log2 fold change [1] | log2 fold change [2] | log2 fold change [3] | log2 fold change [4] | log2 fold change [5] | log2 fold change [6] | log2 fold change [7] | log2 fold change [8] | log2 fold change [9] | log2 fold change [10] |
| --- | --- | --- | --- | --- | --- | --- | --- | --- | --- | --- |
| PRKRA (UniProt O75569) | inactive: -0.012 | inactive: 0.031 | inactive: -0.042 | inactive: -0.082 | inactive: -0.052 | inactive: 0.041 | inactive: 0 | inactive: -0.016 | inactive: 0.03 | inactive: 0.009 |
| PRMT9 (UniProt Q6P2P2) | inactive: -0.021 | inactive: 0.028 | inactive: 0.03 | inactive: -0.041 | inactive: -0.057 | inactive: 0.033 | inactive: -0.038 | inactive: 0.05 | inactive: 0 | inactive: 0.053 |
